Test results as given in paper PMC11637825.
No constants are given. Whether binding was seen depends on the method and setting. Binding seen in cells or lysates may run through a third protein. Some entries that bind do so weakly or less than the wild type.

The chains behind the UniProt entries cited, without tags or fusion partners.
UniProt Q14186: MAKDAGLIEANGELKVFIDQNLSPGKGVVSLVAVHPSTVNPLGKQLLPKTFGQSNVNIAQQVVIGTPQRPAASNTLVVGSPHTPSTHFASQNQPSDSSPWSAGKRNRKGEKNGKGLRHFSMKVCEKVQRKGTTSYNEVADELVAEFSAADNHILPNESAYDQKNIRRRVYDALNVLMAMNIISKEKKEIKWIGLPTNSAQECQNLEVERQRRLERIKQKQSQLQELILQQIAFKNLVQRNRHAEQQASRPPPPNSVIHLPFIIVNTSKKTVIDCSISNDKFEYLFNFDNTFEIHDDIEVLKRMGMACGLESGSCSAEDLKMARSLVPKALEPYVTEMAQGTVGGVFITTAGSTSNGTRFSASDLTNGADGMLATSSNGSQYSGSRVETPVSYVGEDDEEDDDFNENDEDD

Biological target: T1, cytoskeleton associated protein (CKAP) 2 (human (endogenous in HCT116 and SW480)) (UniProt Q8WWK9)
T1 sequence: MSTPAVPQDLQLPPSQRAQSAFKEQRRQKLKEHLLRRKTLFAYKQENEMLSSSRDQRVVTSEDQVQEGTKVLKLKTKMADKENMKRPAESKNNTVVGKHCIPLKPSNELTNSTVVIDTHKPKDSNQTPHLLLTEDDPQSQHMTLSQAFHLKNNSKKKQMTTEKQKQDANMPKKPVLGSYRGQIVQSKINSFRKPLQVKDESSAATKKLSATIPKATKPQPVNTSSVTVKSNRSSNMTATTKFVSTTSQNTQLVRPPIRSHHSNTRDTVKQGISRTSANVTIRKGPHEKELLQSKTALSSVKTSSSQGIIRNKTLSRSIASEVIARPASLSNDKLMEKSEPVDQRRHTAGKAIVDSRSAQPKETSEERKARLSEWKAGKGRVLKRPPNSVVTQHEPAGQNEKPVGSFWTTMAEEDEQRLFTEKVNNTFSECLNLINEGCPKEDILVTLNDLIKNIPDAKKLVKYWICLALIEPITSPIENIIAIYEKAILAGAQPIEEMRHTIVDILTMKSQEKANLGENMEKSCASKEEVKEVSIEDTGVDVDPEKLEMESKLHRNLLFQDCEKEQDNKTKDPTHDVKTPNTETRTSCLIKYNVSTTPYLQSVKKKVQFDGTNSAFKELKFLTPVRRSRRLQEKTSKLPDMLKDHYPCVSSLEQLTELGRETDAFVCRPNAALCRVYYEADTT
Assay: co-IP; HCT116 and SW480 cells lysed in RIPA buffer (50 mM Tris pH 7.4, 150 mM NaCl, 1 mM EDTA, 1% Triton X-100, 10% glycerol); supernatants immunoprecipitated with anti-CKAP2 antibody (ab85889), magnetic protein A/G beads, 4°C, 2 h

binding: binds
Substance: TFDP1 (from UniProt Q14186 1-410)
